Among the data in article PMC12344693, “Human Milk Oligosaccharides Multivalently Presented on Defined Synthetic Neo-Glycoproteins Are Nanomolar Ligands of Tandem-Repeat Galectins” (Biomacromolecules, 2025) are binding values, retold here.

By UniProt entry, the sequences of proteins in these tests, tags left out.
UniProt P09382: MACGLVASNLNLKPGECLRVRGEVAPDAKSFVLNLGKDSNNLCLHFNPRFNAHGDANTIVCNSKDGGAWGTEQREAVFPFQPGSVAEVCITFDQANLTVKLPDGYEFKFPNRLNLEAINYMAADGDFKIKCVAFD
UniProt O00214: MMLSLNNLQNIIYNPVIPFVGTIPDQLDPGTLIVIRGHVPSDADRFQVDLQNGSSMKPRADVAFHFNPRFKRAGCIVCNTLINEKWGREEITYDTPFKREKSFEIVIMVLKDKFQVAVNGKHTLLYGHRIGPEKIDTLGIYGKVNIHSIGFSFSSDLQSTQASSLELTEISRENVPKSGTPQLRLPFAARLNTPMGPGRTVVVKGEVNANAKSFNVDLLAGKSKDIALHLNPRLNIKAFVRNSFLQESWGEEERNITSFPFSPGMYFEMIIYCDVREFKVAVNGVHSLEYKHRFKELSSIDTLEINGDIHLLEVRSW
UniProt P17931: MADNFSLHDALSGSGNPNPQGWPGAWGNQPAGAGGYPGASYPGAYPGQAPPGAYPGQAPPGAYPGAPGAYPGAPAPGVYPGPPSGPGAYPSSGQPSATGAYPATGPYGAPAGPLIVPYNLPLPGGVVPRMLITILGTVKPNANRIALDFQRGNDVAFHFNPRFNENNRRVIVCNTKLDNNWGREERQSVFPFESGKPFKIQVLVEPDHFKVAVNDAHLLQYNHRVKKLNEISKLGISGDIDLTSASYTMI
UniProt P56470: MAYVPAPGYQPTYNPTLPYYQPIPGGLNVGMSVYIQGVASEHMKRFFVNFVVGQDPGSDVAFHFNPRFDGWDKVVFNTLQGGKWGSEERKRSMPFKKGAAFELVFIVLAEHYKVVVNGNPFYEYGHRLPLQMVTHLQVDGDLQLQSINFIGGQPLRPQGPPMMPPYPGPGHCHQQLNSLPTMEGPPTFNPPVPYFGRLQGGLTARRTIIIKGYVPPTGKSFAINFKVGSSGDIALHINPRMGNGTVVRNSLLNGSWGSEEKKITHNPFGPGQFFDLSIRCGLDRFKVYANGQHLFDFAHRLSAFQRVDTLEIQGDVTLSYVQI

These are yes or no findings as the source states them, for the method shown. Some results given as binding are weak or reduced against the parent protein; the word gives no strength.

The target of assay [1] is T1, asialofetuin (UniProt P12763).
T1 sequence (chain, glycoprotein without sialic acids (asialofetuin), as the name says): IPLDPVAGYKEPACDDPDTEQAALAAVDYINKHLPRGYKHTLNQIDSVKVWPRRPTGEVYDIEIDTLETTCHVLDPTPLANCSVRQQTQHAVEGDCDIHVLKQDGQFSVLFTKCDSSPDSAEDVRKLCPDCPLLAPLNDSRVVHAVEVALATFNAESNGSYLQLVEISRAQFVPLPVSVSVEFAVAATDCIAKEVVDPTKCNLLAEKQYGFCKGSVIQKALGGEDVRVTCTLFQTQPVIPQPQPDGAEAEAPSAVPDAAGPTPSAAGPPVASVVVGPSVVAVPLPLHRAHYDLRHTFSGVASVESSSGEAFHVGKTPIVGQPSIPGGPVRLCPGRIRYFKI
The experiment in a line: ELISA; competitive: ASF (0.1 μM in PBS) immobilised on microtiter plates; serial dilutions of inhibitor in EPBS (PBS with 2 mM EDTA) incubated 2 h with a constant galectin concentration ([…] Gal-1, Gal-3, Gal-4; 0.5 μM Gal-8, Gal-9); residual galectin on ASF detected with anti-His-tag-HRP; both purified.

Assay [2] concerns the target T1, asialofetuin. The experiment in a line: ELISA; direct binding of galectin constructs to ASF (data in Table S8); both purified. A general note: An ELISA detects its analyte on a solid surface through an enzyme-linked reagent.
Assay [3] deals with T2, Asialofetuin (UniProt P12763).
T2 sequence (chain, asialo form (glycans without sialic acid), by its name only): T1 sequence (chain, glycoprotein without sialic acids (asialofetuin), as the name says)
The experiment in a line: ELISA; competitive ELISA: ASF (0.1 µM in PBS) immobilised, serial dilutions of the neo-glycoprotein in EPBS incubated with […] Gal-1 or Gal-3 for 2 h; galectin left on ASF detected with anti-His-tag-HRP; both purified.

For “full-length recombinant human galectin-9, N-terminal His-tagged (from UniProt O00182 1-355)”, the binding result in assay [1] and in assay [2] was “binds” each time. Consider “full-length recombinant human galectin-1, N-terminal His-tagged (from UniProt P09382 1-135)”, for which the binding result in assay [1] and in assay [2] was “binds” in each case. “full-length recombinant human galectin-8, N-terminal His-tagged (from UniProt O00214 1-317)”: the binding entry in assay [1] and in assay [2] was “binds” in each case.

Consider “His-tagged galectin-3 (from UniProt P17931 1-250)”, for which the binding result in assay [3] was “binds”. For “full-length recombinant human galectin-3, N-terminal His-tagged (from UniProt P17931 1-250)”, the binding entry in assay [1] and in assay [2] was “binds” each time.

For the substance “full-length recombinant human galectin-4, N-terminal His-tagged (from UniProt P56470 1-323)”, the binding entry in assay [1] and in assay [2] was “binds” in each case.
